Assay [1] has as its target Flag-PINCH (pMT-Flag-PINCH in S2 cells) (Drosophila melanogaster). Kind of assay: affinity purification with mass spectrometry; iGEO: PINCH-PrA (IgG Sepharose) and Flag-PINCH (anti-Flag M2 agarose) complexes from S2 cell lysates in TLB, tri-colour CyDye 2D-GE with a vector control, confirmed on individual Deep Purple stained 2D gels in triplicate; spots present with both baits and absent in controls identified by nano-LC-MS/MS; PINCH^Q38A-PrA compared in separate pull-downs.

The target of assay [2] is PINCH-Protein A (pMT-PINCH-PrA in S2 cells) (Drosophila melanogaster). Described as above.
Assay [3] shares this target. Kind of assay: affinity purification with mass spectrometry; PINCH-PrA captured on IgG Sepharose from lysates of S2 cells; TLB (0.1% Triton, 50 mM Tris-HCl pH 7.9, 150 mM NaCl), 1.5 hours at 4°C; control S2 cells expressing Protein A alone; MudPIT.
Assay [4] concerns the target PINCH-Protein A (transgene pCasPIN-PrA in Drosophila) (Drosophila melanogaster). The assay can be described thus: affinity purification with mass spectrometry; PINCH-PrA captured on IgG Sepharose from lysates of 0-24 hour embryos (PINCH mutant rescued with the PINCH-PrA transgene); TLB (0.1% Triton, 50 mM Tris-HCl pH 7.9, 150 mM NaCl), 1.5 hours at 4°C; control wild-type w1118 embryos; two replicate …; MudPIT.

In publication PMC3688448 one finds binding data, which are given here for twelve molecules.

Results are given in words; binding and its absence hold for the method and conditions named. In cells and extracts the contact can be indirect. These calls come from enrichment with a bait or labelling near it, and not all partners need be listed.

B1: Rpt1 (protein, UniProt Q7KMQ0 1-433)
chain: MPDYLGDDQRKVKHDEKEDKEIKSLDEGDIELLKTYGQSQYHKSIKSIEEDIQKAVKQVNELTGIKESDTGLAPPALWDLAADKQILQNEQPLQVARCTKIINADSDDPKYIINVKQFAKFVVDLADSVAPTDIEEGMRVGVDRNKYQIHIPLPPKIDPTVTMMQVEDKPDVTYSDVGGCKEQIEKLREVVETPLLHPEKFVNLGIEPPKGVLLFGPPGTGKTLCARAVANRTDACFIRVIGSELVQKYVGEGARMVRELFEMARSKKACLIFFDEIDAIGGARFDDGAGGDNEVQRTMLELINQLDGFDPRGNIKVLMATNRPDTLDPALMRPGRLDRKVEFGLPDQDGRSHIFKIHARSMSVERDIRFDLLARLCPNSTGAEIRSVCTEAGMFAIRARRKVATEKDFLEAVKKVIKSYAKFSATPRYMTYN
For the molecule B1, the binding entry in assay [1] and in assay [2] was “binds” in each case.

B2: Mov34 (protein, UniProt P26270 1-338)
chain: MPSQEVSVNKVIVHPLVLLSVVDHFNRMGKIGNQKRVVGVLLGCWRSKGVLDVSNSFAVPFDEDDKDKSVWFLDHDYLENMYGMFKKVNARERVVGWYHTGPKLHQNDIAINELVRRYCPNSVLVIIDAKPKDLGLPTEAYISVEEVHDDGSPTSKTFEHVPSEIGAEEAEEVGVEHLLRDIKDTTVGSLSQKITNQLMGLKGLNAQLRDIKQYLQRVGDSKMPINHQIVYQLQDIFNLLPDITNDQFTGTMYVKTNDQMLVVYLASMVRSIIALHNLINNKLANRDAEEGKSDSKEAKEKNKDSKDKDNKETKDKDGKKAEEKADKGKDEGGKGSRK
Consider B2, for which the binding result in assay [3] and in assay [4] was “binds” throughout.

B3: eIF-5A (protein, UniProt Q9GU68 1-159)
chain: MAELDDQFETTDSGASTTYPMQCSALRKNGFVMLKSRPCKIVEMSTSKTGKHGHAKVHMVGIDIFSNKKYEDICPSTHNMDVPNVKREDLQLIAISDDSFLTLMTESGDLREDLKVPEGELGEQLRLDFDSGKDLLCTVLKACGEECVIAIKTNTALDK
As for B3, the binding result in assay [3] and in assay [4] was “binds” in each case.

B4: Rpt3 (protein, UniProt Q9V405 1-413)
chain: MPYNMDVLIPEKDELSDLKLKDAHSSLDELDMEDLYVRYKKLQKTLEFIEVQEEYIKDEQRNLKKEYLHAQEEVKRIQSVPLVIGQFLEAVDQNTGIVGSTTGSNYYVRILSTIDRELLKPSASVALHKHSNALVDVLPPEADSSISMLQPDEKPDVSYADIGGMDMQKQEIREAVELPLTHFELYKQIGIDPPRGVLMYGPPGCGKTMLAKAVAHHTTASFIRVVGSEFVQKYLGEGPRMVRDVFRLAKENAPAIIFIDEIDAIATKRFDAQTGADREVQRILLELLNQMDGFDQTTNVKVIMATNRADTLDPALLRPGRLDRKIEFPLPDRRQKRLVFSTITSKMNLSEDVDLEEFVARPDKISGADINAICQEAGMHAVRENRYIVLAKDFEKGYKNNIKKDEQEHEFYK
Consider B4, for which the binding entry in assay [3], in assay [1] and in assay [2] was “binds” in each case.

B5: Heat shock protein 26 (protein, UniProt P02517 1-208)
chain: MSLSTLLSLVDELQEPRSPIYELGLGLHPHSRYVLPLGTQQRRSINGCPCASPICPSSPAGQVLALRREMANRNDIHWPATAHVGKDGFQVCMDVAQFKPSELNVKVVDDSILVEGKHEERQDDHGHIMRHFVRRYKVPDGYKAEQVVSQLSSDGVLTVSIPKPQAVEDKSKERIIQIQQVGPAHLNVKANESEVKGKENGAPNGKDK
Take B5: the binding result in assay [3] and in assay [4] was “binds” throughout.

B6: Proteasome α5 subunit (protein, UniProt Q95083 1-244)
chain: MFLTRSEYDRGVNTFSPEGRLFQVEYAIEAIKLGSTAIGICTPEGVVLAVEKRITSPLMVPSTVEKIVEVDKHIGCATSGLMADARTLIERARVECQNHWFVYNERMSIESCAQAVSTLAIQFGDSGDSDGAAAMSRPFGVAILFAGIEAGQPQLWHMDPSGTFVRHGAKAIGSGSEGAQQNLQDLFRPDLTLDEAIDISLNTLKQVMEEKLNSTNVEVMTMTKEREFYMFTKEEVEQHIKNIA
Turning to B6, the binding result in assay [3] and in assay [4] was “binds” in each case.

B7: UDP-galactose 4'-epimerase (protein, UniProt Q9W0P5 1-350)
chain: MAPPTVLVTGGAGYIGSHTVLEMLNAGYNVICVDNLCNAYSSGAKLPEALSRVQEITGKKVNFYRVDITDREQVRSVFQEHKIDMVAHFAALKAVGESCRIPLQYYHNNMTGTNVLLEAMADNNVFKFVYSSSATVYGEPKFLPVTEEHPTGNCTSPYGKTKYFTEEILKDLCKSDKRWAVVSLRYFNPVGAHISGRIGEDPNGEPNNLMPYIAQVAVGRRPSLSVYGSDFPTHDGTGVRDYIHIVDLAEGHVKALDKLRNIAETGFFAYNLGTGVGYSVLDMVKAFEKASGKKVNYTLVDRRSGDVATCYADATLADKKLGWKAERGIDKMCEDTWRWQSQNPNGYANK
Consider B7, for which the binding entry in assay [3] and in assay [4] was “binds” in each case.

B8: Ribosomal protein S16 (protein, UniProt Q9W237 1-148)
chain: MQQKRREPVQAVQVFGRKKTATAVAYCKRGNGLLKVNGRPLEQIEPKVLQYKLQEPLLLLGKEKFAGVDIRVRVSGGGHVAQIYAIRQAISKALVAFYQKYVDEASKKEIKDILVQYDRTLLVGDPRRCEPKKFGGPGARARYQKSYR
As to B8, the binding entry in assay [3] and in assay [4] was “binds” throughout.

B9: Ribosomal protein L6 (protein, UniProt Q9V9W2 1-243)
chain: MAPIEKAKKVAKSAKKGKKHPVNSYLKGGILRYSKAQMYKRRALYRLKDKKSPVVEKAKVPIKKSKASYPTKTFVKKRPSKANFSEHKRNTRRNLTPGTVLILLAGRHQGKRVVLLKVLASGLLLVTGPFALNSCPLRRVSQRYVIGTSSKVDLGAFKVPEHLNDAYFRRLKAKKDKKTGEADIFAAKKERFVPNEQRKKDQKEVDAALLKVIKAHPEGKFFAKYLQNMFALHSSQYPHRMRF
For B9, the binding entry in assay [3] and in assay [4] was “binds” in each case.

B10: Pros35 (protein, UniProt P12881 1-279)
chain: MFRNQYDSDVTVWSPQGRLHQVEYAMEAVKLGTATVGLKNKDYAVLVALCKPTSELSDTQRKIIPIDDHLGISIAGLTADARVLSRYLRSECLNYKHSYDTTYPVSRLITNLGNKMQTTTQRYDRRPYGVGLLVAGYDERGPHIYQVTPSATFFNCKANSIGSRSQSARTYLEKNLNKFLDSSKDEIIRHGIRAILGTLPTDEQGKDAGQYDITVAIVGKDQPFTILSNKDSAKHVAIAKENDNDTPRNDDDDDRPSPPEEPAAGPRDPEVLVATEQRP
In the case of B10, the binding result in assay [3], in assay [1] and in assay [2] was “binds” each time.

B11: Trip1 (protein, UniProt O02195 1-326)
chain: MRPLMLQGHERSITQIKYNREGDLLFSCSKDQKPNVWYSLNGERLGTYDGHQGAVWCLDVDWESRKLITGAGDMTAKIWDVEYGTVIASIPTKSSVRTSNFSFSGNQAAYSTDKAMGQSCELFLIDVRNADSSLSEQEPTLRIPMTESKITSMLWGPLDETIITGHDNGNIAIWDIRKGQKVVDSGTDHSAGINDMQLSKDGTMFVTASKDTTAKLFDSESLMCLKTYKTERPVNSAAISPIMDHVVLGGGQDAMEVTTTSTKAGKFDSRFFHLIYEEEFARLKGHFGPINSLAFHPDGKSYASGGEDGFVRVQTFDSTYFENIFE
As for B11, the binding result in assay [3] and in assay [4] was “binds” in each case.

B12: Ribosomal protein S12 (protein, UniProt P80455 1-139)
chain: MADVDVDVPSAAPVLDGAMDINTALQEVLKKSLIADGLVHGIHQACKALDKRQAVLCILAESFDEPNYKKLVTALCNEHQIPLIRVDSHKKLGEWSGLCKIDKEGKPRKVCGCSVVVIKDFGEETPALDVVKDHLRQNS
For the molecule B12, the binding result in assay [3] and in assay [4] was “binds” in each case.
